These are yes or no findings as the source states them, for the method shown. In cells and extracts the contact can be indirect. Binding can be weak; no strength is given.
Biological target: endogenous mouse PQBP1 (mouse (endogenous in primary microglia and in R6/2 cerebral cortex)) (UniProt Q91VJ5)
Assay: co-IP; RIPA lysate of cerebral cortex of R6/2 mice; precipitated with anti-PQBP1 or anti-tau antibody and Protein G Sepharose; SDS-PAGE

By UniProt entry, the sequences of proteins in these tests, tags left out.
UniProt Q91VJ5: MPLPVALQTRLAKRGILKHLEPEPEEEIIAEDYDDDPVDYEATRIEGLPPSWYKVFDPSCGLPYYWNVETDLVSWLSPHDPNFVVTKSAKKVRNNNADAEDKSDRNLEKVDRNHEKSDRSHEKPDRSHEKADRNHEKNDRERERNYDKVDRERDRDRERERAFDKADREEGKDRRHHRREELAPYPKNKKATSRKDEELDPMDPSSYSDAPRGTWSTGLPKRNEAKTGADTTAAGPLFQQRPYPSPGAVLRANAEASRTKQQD

endogenous mouse tau (from UniProt P10637-2)
binding: binds
